Data taken from paper PMC8461913.
Results are given in words; binding and its absence hold for the method and conditions named. Binding seen in cells or lysates may run through a third protein. Sequences can lack the tags named with a protein. One block for each molecule: values may come before it.

Sequences of proteins named here, by UniProt entry; tags and fusion partners are left off.
UniProt Q99081: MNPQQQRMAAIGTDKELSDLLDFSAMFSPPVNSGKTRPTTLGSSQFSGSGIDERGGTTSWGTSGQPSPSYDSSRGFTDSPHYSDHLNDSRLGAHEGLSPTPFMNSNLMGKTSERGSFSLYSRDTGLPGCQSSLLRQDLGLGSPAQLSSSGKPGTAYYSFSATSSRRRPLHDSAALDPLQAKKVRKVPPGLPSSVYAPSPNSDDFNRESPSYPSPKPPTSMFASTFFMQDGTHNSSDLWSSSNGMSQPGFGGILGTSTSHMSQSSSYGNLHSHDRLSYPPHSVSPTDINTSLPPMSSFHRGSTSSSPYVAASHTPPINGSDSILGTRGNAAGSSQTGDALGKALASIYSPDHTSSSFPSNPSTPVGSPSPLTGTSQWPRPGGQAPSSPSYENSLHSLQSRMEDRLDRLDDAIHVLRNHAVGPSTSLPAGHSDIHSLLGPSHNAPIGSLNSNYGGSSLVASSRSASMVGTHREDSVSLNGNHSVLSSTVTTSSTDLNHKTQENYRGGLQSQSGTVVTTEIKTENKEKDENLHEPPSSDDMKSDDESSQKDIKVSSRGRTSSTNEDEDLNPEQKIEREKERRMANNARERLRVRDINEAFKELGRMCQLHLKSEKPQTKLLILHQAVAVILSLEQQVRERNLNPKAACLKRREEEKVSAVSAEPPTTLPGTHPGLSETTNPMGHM
UniProt P08047: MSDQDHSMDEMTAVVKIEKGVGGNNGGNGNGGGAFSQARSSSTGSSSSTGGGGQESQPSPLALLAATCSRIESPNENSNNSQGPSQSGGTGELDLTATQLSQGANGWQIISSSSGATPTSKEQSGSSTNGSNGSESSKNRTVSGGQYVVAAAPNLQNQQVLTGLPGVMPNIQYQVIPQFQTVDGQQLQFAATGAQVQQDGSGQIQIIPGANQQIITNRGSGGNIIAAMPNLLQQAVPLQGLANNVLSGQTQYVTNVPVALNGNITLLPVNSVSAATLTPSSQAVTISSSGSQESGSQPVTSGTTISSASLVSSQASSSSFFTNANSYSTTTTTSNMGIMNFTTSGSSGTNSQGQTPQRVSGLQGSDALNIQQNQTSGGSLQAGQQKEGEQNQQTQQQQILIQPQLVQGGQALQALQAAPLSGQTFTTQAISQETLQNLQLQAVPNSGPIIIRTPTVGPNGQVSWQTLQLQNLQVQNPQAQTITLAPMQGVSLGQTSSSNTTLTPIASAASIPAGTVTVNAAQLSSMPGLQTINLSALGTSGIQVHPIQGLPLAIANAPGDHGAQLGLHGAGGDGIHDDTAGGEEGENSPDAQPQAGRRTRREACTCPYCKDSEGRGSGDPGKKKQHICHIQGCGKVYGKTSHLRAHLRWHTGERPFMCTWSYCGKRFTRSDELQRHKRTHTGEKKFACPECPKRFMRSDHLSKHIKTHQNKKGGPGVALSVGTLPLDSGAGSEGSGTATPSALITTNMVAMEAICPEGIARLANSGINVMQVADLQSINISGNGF

Target: T1, Flag-tagged midkine (MDK) (human) (UniProt P21741)
T1 sequence: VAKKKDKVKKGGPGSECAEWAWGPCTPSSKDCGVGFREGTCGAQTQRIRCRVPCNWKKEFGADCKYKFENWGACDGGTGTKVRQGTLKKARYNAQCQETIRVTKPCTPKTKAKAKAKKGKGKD
Assay: co-IP; lysate of MDK-overexpressing A172 cells; antibody or control IgG on Protein-G Sepharose beads, 2 h at 4 °C; three washes with extraction buffer; SDS-PAGE and immunoblotting

binding: no binding
Molecule: transcription factor 12 (TCF12) (from UniProt Q99081 1-682)

binding: no binding
Molecule: Sp1 transcription factor (SP1) (from UniProt P08047 1-785)

binding: no binding
B1: 5'-3' exoribonuclease 2 (XRN2) (protein, UniProt Q9H0D6 1-950)
chain: MGVPAFFRWLSRKYPSIIVNCVEEKPKECNGVKIPVDASKPNPNDVEFDNLYLDMNGIIHPCTHPEDKPAPKNEDEMMVAIFEYIDRLFSIVRPRRLLYMAIDGVAPRAKMNQQRSRRFRASKEGMEAAVEKQRVREEILAKGGFLPPEEIKERFDSNCITPGTEFMDNLAKCLRYYIADRLNNDPGWKNLTVILSDASAPGEGEHKIMDYIRRQRAQPNHDPNTHHCLCGADADLIMLGLATHEPNFTIIREEFKPNKPKPCGLCNQFGHEVKDCEGLPREKKGKHDELADSLPCAEGEFIFLRLNVLREYLERELTMASLPFTFDVERSIDDWVFMCFFVGNDFLPHLPSLEIRENAIDRLVNIYKNVVHKTGGYLTESGYVNLQRVQMIMLAVGEVEDSIFKKRKDDEDSFRRRQKEKRKRMKRDQPAFTPSGILTPHALGSRNSPGSQVASNPRQAAYEMRMQNNSSPSISPNTSFTSDGSPSPLGGIKRKAEDSDSEPEPEDNVRLWEAGWKQRYYKNKFDVDAADEKFRRKVVQSYVEGLCWVLRYYYQGCASWKWYYPFHYAPFASDFEGIADMPSDFEKGTKPFKPLEQLMGVFPAASGNFLPPSWRKLMSDPDSSIIDFYPEDFAIDLNGKKYAWQGVALLPFVDERRLRAALEEVYPDLTPEETRRNSLGGDVLFVGKHHPLHDFILELYQTGSTEPVEVPPELCHGIQGKFSLDEEAILPDQIVCSPVPMLRDLTQNTVVSINFKDPQFAEDYIFKAVMLPGARKPAAVLKPSDWEKSSNGRQWKPQLGFNRDRRPVHLDQAAFRTLGHVMPRGSGTGIYSNAAPPPVTYQGNLYRPLLRGQAQIPKLMSNMRPQDSWRGPPPLFQQQRFDRGVGAEPLLPWNRMLQTQNAAFQPNQYQMLAGPGGYPPRRDDRGGRQGYPREGRKYPLPPPSGRYNWN
